Measured values reported in PubChem BioAssay AID624291 (National Center for Advancing Translational Sciences (NCATS), 2012).
In all, about 350,000 compounds went through this assay and about 220 (0.063%) were called active. Inconclusive means that the source gave no clear call. Such entries were picked first, then a sample of the others. Calls follow the shape of the dose curve; as a rule, active = well fitted activation curve with a large enough effect; inconclusive = small, poorly fitted or top-dose-only effect; inactive = no such curve, though single readings can be large or run the other way. Where the call is inconclusive, the potency comes from a doubtful curve fit.

Assay: qHTS for Activators of Integrin-Mediated Alleviation for Muscular Dystrophy; also: nearly all actives have a fitted effect of over 60% in size
Conditions: alpha7betagal myoblasts, beta-gal FDG fluorescence, 48 h; series mostly up to 38.3 µM
Outline: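 alpha7betagal+/- myoblasts (passage 13, 250/well) treated 48 h at 37C with compounds at 1:260 dilution of DMSO stock. Lysed, then beta-galactosidase activity read as FDG fluorescence (ex 480/em 540) after 30 min, with pre-read for autofluorescence.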
Potency is read from the fitted curve at half-maximal effect.

Potency, inconclusive:
Cc1nc2c(=O)n(-c3ccc(F)cc3F)nc(C)c2s1 2.82 µM [activator, partial curve, poor fit], O=C(NCC(=O)N1CCN(C/C=C/c2ccccc2)CC1)c1ccc(Br)cc1 10 µM [activator, partial curve, poor fit], CCOC(=O)C1=C(C)C2C3C(=O)N(c4ccccc4C)C(=O)C3C1(C)C1C(=O)N(c3ccccc3C)C(=O)C21 (stereo not given) 5.01 µM [activator, single point], COc1ccccc1C(=O)OCc1ccc2sc(C)nc2c1 3.98 µM [activator, full curve, poor fit], CCN(C(=O)COc1ccccc1)C1CCCCC1 7.94 µM [activator, partial curve], O=C(O)CN1C(=O)C(=O)N(Cc2ccc(C(F)(F)F)cc2)C1=O 28.2 µM [activator, single point], CCOC(=O)Cc1csc(NC(=O)C2CCCCC2C(=O)O)n1 (stereo not given) 5.01 µM [activator, single point], CCNC(=O)NC(=O)CN(C)c1ccccc1 2.51 µM [activator, partial curve, poor fit], CCc1nnc(NC(=O)CSC(=S)N2CCOCC2)s1 5.01 µM [activator, single point], COc1ccc(-c2noc(=O)n2Cc2ccccc2F)cc1 28.2 µM [activator, single point], COc1ccccc1-c1csc(NC(=O)c2cc(-c3cccs3)nc3ccccc23)n1 5.01 µM [activator, single point], COc1cccc(C(=S)N2CCCC2)c1OC 0.316 µM [activator, full curve, poor fit], COc1ccc(N(CC(=O)Nc2ccc(F)c(F)c2)S(=O)(=O)c2c(C)[nH]c(=O)[nH]c2=O)cc1 28.2 µM [activator, single point]

Potency, inactive:
Cc1cc(C)c(C#N)c(SCc2nc3ccccc3c(=O)[nH]2)n1, O=C(O)C1CC(=O)N(CCc2ccc(F)cc2)C1 (stereo not given), CCOc1ccc(C(C)NC(=O)C2CCN(S(=O)(=O)c3ccc(OC)cc3)CC2)cc1OCC (stereo not given), O=C(/C=C/c1ccc(Br)cc1)c1ccc(NC(=O)c2ccco2)cc1, CSc1ccccc1OCc1cc(C(=O)NC(C)c2cnn(C)c2)no1 (stereo not given), CCN1C(=O)[C@H]2[C@H]3CN=C(SCc4ccc(Cl)cc4)N3[C@@](Cc3ccccc3)(C(=O)OC)[C@H]2C1=O, CCOC(=O)CSc1nnc(-c2ccccc2NC(=O)c2ccccc2)o1
